Results as given in PubChem BioAssay AID529 (NMMLSC, 2006).
Hit rate of the full screen: of about 24,000 compounds, about 50 (0.2%) were called active. This list was built around the results that the source calls inconclusive (neither active nor inactive); the mix of calls is not that of the screen.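 Rule for the calls: active = inhibition above 50%; inconclusive = compound itself fluorescent, judged against control cell fluorescence; inactive = the rest.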

By UniProt entry, the sequences of proteins in these tests, tags left out.
UniProt P13612, whole entry, looked up: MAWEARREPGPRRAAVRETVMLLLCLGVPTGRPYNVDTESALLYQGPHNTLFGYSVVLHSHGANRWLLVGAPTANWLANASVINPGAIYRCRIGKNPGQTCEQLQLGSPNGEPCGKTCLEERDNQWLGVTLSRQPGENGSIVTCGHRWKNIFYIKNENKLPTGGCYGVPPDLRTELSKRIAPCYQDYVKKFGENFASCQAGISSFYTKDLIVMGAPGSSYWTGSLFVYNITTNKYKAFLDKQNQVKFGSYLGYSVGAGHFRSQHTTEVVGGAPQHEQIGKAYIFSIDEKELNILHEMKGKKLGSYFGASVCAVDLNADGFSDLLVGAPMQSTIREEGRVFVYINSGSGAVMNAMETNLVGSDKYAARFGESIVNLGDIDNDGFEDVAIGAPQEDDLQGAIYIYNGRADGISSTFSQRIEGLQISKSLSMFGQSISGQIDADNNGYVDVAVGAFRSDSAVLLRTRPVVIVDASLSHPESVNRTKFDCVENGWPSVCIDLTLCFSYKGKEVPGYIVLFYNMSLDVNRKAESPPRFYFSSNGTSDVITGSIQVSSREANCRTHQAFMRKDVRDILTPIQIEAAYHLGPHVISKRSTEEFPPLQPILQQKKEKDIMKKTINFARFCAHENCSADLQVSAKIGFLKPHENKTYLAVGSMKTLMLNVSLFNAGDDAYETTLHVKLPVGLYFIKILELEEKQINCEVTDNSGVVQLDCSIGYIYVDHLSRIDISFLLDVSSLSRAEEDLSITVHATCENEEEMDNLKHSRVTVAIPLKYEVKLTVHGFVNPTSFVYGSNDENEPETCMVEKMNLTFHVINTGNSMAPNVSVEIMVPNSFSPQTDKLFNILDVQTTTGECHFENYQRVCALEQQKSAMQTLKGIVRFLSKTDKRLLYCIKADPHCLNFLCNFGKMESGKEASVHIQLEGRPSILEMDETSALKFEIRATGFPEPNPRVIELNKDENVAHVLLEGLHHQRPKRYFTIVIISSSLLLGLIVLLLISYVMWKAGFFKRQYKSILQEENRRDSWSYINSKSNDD

What follows are compounds tested against Integrin alpha-4 (Homo sapiens) (UniProt P13612) (assay: blockers of LDV-FITC ligand binding on VLA-4 – Jurkat cells, Mn2+ activated, primary screen (AID 529;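 for inhibition: 0% = Mn2+ stimulated cells lacking compound and 100% = ligand binding without Mn2+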)). Conditions: LDV-FITC binding with Mn2+, flow cytometry; stronger effect = higher value, screened at 10 µM (by protocol), 100% = Mn2+-driven binding gain fully reversed unless noted.
With `COc1ccc(NC(=O)c2c(SC)nsc2SC)cc1` the inhibition was inactive: -23% [stronger effect = higher value, 100% = Mn2+-driven binding gain fully reversed, screened at 10 µM (by protocol)]. For `O=C1Nc2ccccc2SC(c2ccccc2)C1O` (configuration not stated), the inhibition was “inconclusive”. In the case of `CCC(C)NC(=O)c1ccccc1NC(=O)CN1C(=O)c2ccccc2S1(=O)=O` (configuration not stated), the inhibition is reported as “inconclusive”. For `O=C(Nc1ccccc1-c1nc2ccccc2o1)c1ccc2c(c1)OCCO2`, the inhibition was “inconclusive”. For `COc1ccccc1Nc1nc(C)cs1`, the inhibition was “inconclusive”. `Cc1cc(Nc2ccc(F)cc2F)n2ncnc2n1` was tested, and the inhibition was “inconclusive”. `COc1ccc(-n2nnc3c(SCC(=O)OCc4ccccc4)ncnc32)cc1` was tested, and the inhibition was “inconclusive”. `O=C(CSc1nnc(CNC(=O)c2ccccc2F)o1)c1ccccc1` was tested, and the inhibition was inactive: 7%. In the case of `O=C(CCNS(=O)(=O)c1cccc2nsnc12)NC1CCCc2ccccc21` (configuration not stated), the inhibition is reported as “inconclusive”. For `O=C(CN1CCN(C(=O)c2ccccc2F)CC1)Nc1ccc(Br)cc1`, the inhibition was “inconclusive”. In the case of `O=C(Cc1ccccc1)Nc1nonc1NC(=O)c1ccccc1`, the inhibition is reported as “inconclusive”. For `Cc1ccc2[nH]c3c(N4CCCCCC4)ncnc3c2c1`, the inhibition was “inconclusive”. `COc1cccc(NC(=O)CN2C(=O)COc3ccc(Cl)cc32)c1` was tested, and the inhibition was inactive: -4%. With `CNC(=O)c1nnn(Cc2ccccc2)c1NC(=O)C(F)(F)F` the inhibition was inactive: -23%. With `CN(C)c1ccc(C=Nc2ccc(N(C)C)cc2)cc1` the inhibition was “inconclusive”. In the case of `CC1(C)CC(=O)C2=C(C1)N(c1ccccc1)C(N)=C(C#N)C2c1cccnc1` (configuration not stated), the inhibition is reported as “inconclusive”. For `CN(C)S(=O)(=O)c1ccc(C(=O)N2CCCC2c2nc3ccccc3s2)cc1` (configuration not stated), the inhibition was “inconclusive”. In the case of `COCC(C)NC(=O)NC1(C(F)(F)F)Oc2ccc(Cl)cc2O1` (configuration not stated), the inhibition is reported as inactive: -8%. In the case of `COCCNC(=O)c1cc2c(=O)n(C)c3ccccc3c2n1C`, the inhibition is reported as “inconclusive”. For `CN(C)c1ccc(-c2nc3n(n2)C(c2cccnc2)C2=C(CC(C)(C)CC2=O)N3)cc1` (configuration not stated), the inhibition was “inconclusive”. `Cc1cccc(-n2c(CNC(=O)COc3ccccc3)nnc2SCC(=O)Nc2nccs2)c1` was tested, and the inhibition was “inconclusive”. For `CCCC(=O)Nc1nnc(CC(=O)N2CCCC2)s1`, the inhibition was inactive: -4.7%. `CCN1CCCC1CNC(=O)C1CCN(Cc2nc(-c3cccc(Br)c3)oc2C)CC1` (configuration not stated) was tested, and the inhibition was inactive: -1%. With `Cc1nc2sc(C(c3cccc(F)c3)N3CCCC(C)C3)c(O)n2n1` (configuration not stated) the inhibition was “inconclusive”. With `Cc1cc2cc(CCNC(=O)c3ccc(Br)o3)c(=O)[nH]c2cc1C` the inhibition was “inconclusive”. With `CC1(C)NC(C)(C)C(O)(C(N)=O)C1=O` (configuration not stated) the inhibition was “inconclusive”. In the case of `Cc1ccc(NC(=O)CN(C)S(=O)(=O)c2cccc3cccnc23)cc1`, the inhibition is reported as “inconclusive”. `CCN1C(=O)CSc2ccc(C(=O)NC3CCCCC3)cc21` was tested, and the inhibition was “inconclusive”. `N#Cc1ccc(NC(=O)c2cc3cc4c5c(c3oc2=N)CCCN5CCC4)cc1` was tested, and the inhibition was “inconclusive”. With `CCOC(=O)CSc1nc2c(cnn2-c2ccc(C)cc2)c(=O)[nH]1` the inhibition was “inconclusive”. In the case of `COc1ccc(C)c2sc(N3CCCC3)nc12`, the inhibition is reported as “inconclusive”. In the case of `Cc1c(C)c2cc3c4c(oc3c(C)c2oc1=O)CCCC4`, the inhibition is reported as “inconclusive”. `O=C(NCc1cccs1)c1ccc2c(c1)ncn2C1CCCC1` was tested, and the inhibition was inactive: -10% [stronger effect = higher value, 100% = Mn2+-driven binding gain fully reversed, screened at 10 µM (by protocol)]. `c1c2c(cc3sc(N4CCOCC4)nc13)OCCO2` was tested, and the inhibition was “inconclusive”. For `O=C(CCNS(=O)(=O)c1ccc(Br)cc1)NCc1ccc2c(c1)OCO2`, the inhibition was “inconclusive”. For `O=C(CNC(=O)c1cccs1)NCCN1CCN(c2ccccc2F)CC1`, the inhibition was inactive: -15%. `O=C(Cn1ccc2ccccc2c1=O)N1CCN(Cc2ccc3c(c2)OCO3)CC1` was tested, and the inhibition was “inconclusive”. For `CCC(=O)N1CCc2cc(S(=O)(=O)NCCC(=O)NC3CCCc4ccccc43)ccc21` (configuration not stated), the inhibition was “inconclusive”. In the case of `Cc1nc2sc(C(c3ccc(F)cc3)N3CCN(C(=O)c4ccco4)CC3)c(O)n2n1` (configuration not stated), the inhibition is reported as “inconclusive”. With `O=C(CN1CCN(c2ccccn2)CC1)Nc1ccc(Cl)c(C(F)(F)F)c1` the inhibition was “inconclusive”. With `COc1cc(CC(=O)NCc2ccc3c(c2)OCO3)cc(OC)c1OC` the inhibition was “inconclusive”. In the case of `COc1ccccc1-c1cc(N)n(S(=O)(=O)c2ccc(F)c(C)c2)n1`, the inhibition is reported as “inconclusive”. In the case of `COc1ccccc1C1CC(=O)NC(C)=C1C(=O)OCC1CCCO1` (configuration not stated), the inhibition is reported as “inconclusive”. With `CCOc1ccc(C2C(C(=O)OC)=C(C)N=C3SCCC(=O)N32)cc1OCC` (configuration not stated) the inhibition was inactive: 6%. In the case of `COc1ccc2cc(C#N)c(SCC(=O)N3CCCC3)nc2c1`, the inhibition is reported as “inconclusive”. In the case of `COC(=O)c1ccc2c(=O)n(CC3CCCO3)c(SCC(=O)Nc3ccccc3OC)nc2c1` (configuration not stated), the inhibition is reported as “inconclusive”. For `CC(=O)c1ccc(-c2nc3ccccc3n2C)o1`, the inhibition was “inconclusive”. With `CC(=O)Nc1cccc(NC(=O)c2sc3ncn(CC(=O)N4CCCCC4)c(=O)c3c2C)c1` the inhibition was inactive: 3%. `CCOC(=O)C1CCCN(c2c(NCCCN(C)c3ccccc3)c(=O)c2=O)C1` (configuration not stated) was tested, and the inhibition was “inconclusive”. `Cc1cccc(CSC2=NCCN2C(=O)C2CC2)c1` was tested, and the inhibition was “inconclusive”. `CCCCNC(=O)OCCNC(=O)NC` was tested, and the inhibition was inactive: -12.3%. With `CC1(C)CC(=O)c2c(noc2-c2ccccc2)C1` the inhibition was “inconclusive”. With `CC(=O)OC1CC(C)(C)N(OC(=O)c2ccccc2)C(C)(C)C1` the inhibition was “inconclusive”. `FC(F)(F)c1nnc2sc(-c3cccs3)nn12` was tested, and the inhibition was “inconclusive”. With `Cc1nnc(SCC(=O)NCc2ccco2)[nH]c1=O` the inhibition was “inconclusive”. In the case of `CCOc1ccc2c(c1)c1nnc(SCC(=O)N3CCC(C)CC3)nc1n2C`, the inhibition is reported as “inconclusive”. For `Clc1ccc(C2=Nn3c(nnc3-c3n[nH]c4c3CCC4)SC2)cc1Cl`, the inhibition was inactive: 25%. In the case of `Cc1ccc(N=c2oc3cc(O)ccc3cc2C(N)=O)cc1`, the inhibition is reported as “inconclusive”. For `c1ccc(-c2noc(CSc3nc4ccccc4o3)n2)cc1`, the inhibition was “inconclusive”. `CN(C1CCCCC1)S(=O)(=O)c1ccc2c(c1)c(=O)c(C(=O)NCCCN1CCCC1)cn2C` was tested, and the inhibition was “inconclusive”. For `COc1ccc(Cl)cc1N1C(=O)C2CCCN2C1c1ccccc1F` (configuration not stated), the inhibition was “inconclusive”. For `CCOC(=O)C1CCCN(c2c(NCCc3ccc(S(N)(=O)=O)cc3)c(=O)c2=O)C1` (configuration not stated), the inhibition was “inconclusive”.
